Assay results as given in patent US9969677B2, “Histone acetyltransferase modulators and uses thereof” (THE TRUSTEES OF COLUMBIA UNIVERSITY IN THE CITY OF NEW YORK, priority 2010, dated 2018).
Some of these results come from one statement about several compounds together.

Amino acid sequences for entries named in this document (tags omitted). Residues count along the entry.
UniProt Q92793, 1323-1700 limits assumed: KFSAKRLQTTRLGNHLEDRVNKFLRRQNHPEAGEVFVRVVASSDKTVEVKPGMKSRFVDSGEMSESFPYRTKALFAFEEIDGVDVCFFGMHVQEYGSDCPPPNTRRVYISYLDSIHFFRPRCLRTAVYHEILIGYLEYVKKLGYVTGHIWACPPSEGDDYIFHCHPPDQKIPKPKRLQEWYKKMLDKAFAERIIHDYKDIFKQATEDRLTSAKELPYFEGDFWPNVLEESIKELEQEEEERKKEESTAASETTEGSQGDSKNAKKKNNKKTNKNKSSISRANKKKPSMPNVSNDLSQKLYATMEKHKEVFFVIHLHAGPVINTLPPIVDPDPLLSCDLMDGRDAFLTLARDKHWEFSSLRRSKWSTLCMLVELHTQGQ

What was measured:
[1] = target: T1, p300 (Homo sapiens, UniProt Q09472); experiment: acetyltransferase activity assay (Enzo Life Sciences), P300; format: biochemical
T1 construct: the catalytic domain of human CBP, PCAF, p300 and GCN5 (Enzo Life Sci., USA) can be used; purchased Enzo Life Sciences
T1 sequence (Q09472 1287-1663 limits assumed): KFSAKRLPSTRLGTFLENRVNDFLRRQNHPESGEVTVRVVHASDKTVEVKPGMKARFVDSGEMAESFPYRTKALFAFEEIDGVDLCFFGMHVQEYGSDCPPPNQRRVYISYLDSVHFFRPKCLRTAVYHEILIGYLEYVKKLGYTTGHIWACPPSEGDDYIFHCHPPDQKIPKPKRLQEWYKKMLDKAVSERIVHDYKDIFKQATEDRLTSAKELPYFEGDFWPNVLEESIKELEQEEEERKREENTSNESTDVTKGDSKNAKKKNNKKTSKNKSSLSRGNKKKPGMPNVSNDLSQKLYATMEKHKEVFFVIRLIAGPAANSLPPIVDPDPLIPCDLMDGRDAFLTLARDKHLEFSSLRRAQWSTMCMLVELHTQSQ
Method: (§1) Commercial human HATs (CBP, p300, GCN5, PCAF (Enzo Life Sciences), and Tip60 (SignalChem)) were assayed in an acetyltransferase activity assay (Enzo Life Sciences, Cat. No. ADI-907-026). Each well contained, in addition to a HAT, histone 3 as the acetyl acceptor, acetyl-CoA as the acetyl donor in the reaction mixture and compounds (1% DMSO) at the appropriate concentrations. The reaction was carried out at room temperature. Enzyme activity was measured by monitoring the breakage of the substrate acetyl-CoA by HAT using a proprietary detection mixture. The fluorescent signal was measured using a Tecan microplate reader (excitation: 380 nm, emission: 520 nm). The assay methodology was adopted as it provided a 10-fold higher signal/background ratio and was more sensitive than other assays. […] Compound 10 had no effect with either P300 or CBP (FIG. 13).

[2] = target: T2, CBP (Homo sapiens, UniProt Q92793); experiment: acetyltransferase activity assay (Enzo Life Sciences), CBP; format: biochemical
T2 construct: the catalytic domain of human CBP, PCAF, p300 and GCN5 (Enzo Life Sci., USA) can be used; purchased Enzo Life Sciences
Method: as §1

Row | effect on P300, initial screening (FIG. 13) [1] | effect on CBP, initial screening (FIG. 13) [2] | SMILES
1 | behave as activators | behave as activators | CCOc1cccc(OCCN2CCCCC2)c1C(=O)Nc1ccc(Cl)c(C(F)(F)F)c1 [Compound 8, N-[4-chloro-3-(trifluoromethyl)phenyl]-2-ethoxy-6-[2-(piperidin-1-yl)ethoxy] benzamide]
2 | behave as activators | behave as activators | CCOc1cccc(OCCN2CCOCC2)c1C(=O)Nc1ccc(Cl)c(C(F)(F)F)c1 [Compound 9, N-[4-chloro-3-(trifluoromethyl)phenyl]-2-ethoxy-6-(2-morpholinoethoxy) benzamide]
3 | behave as activators | behave as activators | CCOc1cccc(OCCN(CC)CC)c1C(=O)Nc1ccc(Cl)c(C(F)(F)F)c1 [Compound 12, N-(4-chloro-3-(trifluoromethyl)phenyl)-2-(2-(diethylamino)ethoxy)-6-ethoxybenzamide]
4 | behave as activators | behave as activators | CCOc1cccc(OCCCN(C)C)c1C(=O)Nc1ccc(Cl)c(C(F)(F)F)c1 [Compound 13, N-[4-chloro-3-(trifluoromethyl)phenyl]-2-[3-(dimethylamino)propoxy]-6-ethoxybenzamide]
5 | behave as activators | behave as activators | CCOc1cccc(OCCCN(CC)CC)c1C(=O)Nc1ccc(Cl)c(C(F)(F)F)c1 [Compound 14, N-[4-chloro-3-(trifluoromethyl)phenyl]-2-[3-(diethylamino)propoxy]-6-ethoxybenzamide]
6 | behave as activators | behave as activators | CCOc1ccc(C(=O)Nc2ccc(Cl)c(C(F)(F)F)c2)c(OCCN(C)C)c1 [Compound 19, N-(4-chloro-3-(trifluoromethyl)phenyl)-2-(2-(dimethylamino)ethoxy)-4-ethoxybenzamide]
